Values of other authors, collected in patent US12208072B2, “Compositions for removing necrotic or infected tissues from body surface lesions and from oral cavity” (DEBx Medical Holding B.V., priority 2019, dated 2025).
At least one structure is not confirmed: it was looked up by name or label, or the drawing left a doubt.

O=C(O)[C@H](O)[C@@H](O)[C@H](O)[C@H](O)CO [Gluconic]
Ka1: 7.4 × 10^−3
